Values quoted from earlier work as cited in US20080085301A1, “Method for transdermal administration of antimicrobial medications” (priority 2005, published 2008).
At least one structure is not confirmed: it was looked up by name or label, or the drawing left a doubt.

What was measured:
Streptococcus pneumoniae = conditions: based on Streptococcus pneumoniae; in vitro

Compound	Approximate MIC (Streptococcus pneumoniae) [µg/mL]	Approximate MIC (toxoplasmosis)
CN(C)[C@@H]1C(O)=C(C(N)=O)C(=O)[C@@]2(O)C(O)=C3C(=O)c4c(O)cccc4[C@@](C)(O)[C@H]3C[C@@H]12 [Tetracycline]	~3.6	
C[C@H]1c2cccc(O)c2C(=O)C2=C(O)[C@]3(O)C(=O)C(C(N)=O)=C(O)[C@@H](N(C)C)[C@@H]3[C@@H](O)[C@@H]21 [Doxycycline]	~0.03	
CCC[C@@H]1C[C@@H](C(=O)N[C@@H]([C@H]2O[C@H](SC)[C@H](O)[C@@H](O)[C@H]2O)[C@H](C)Cl)N(C)C1 [Clindamycin]	~0.5	
CCc1nc(N)nc(N)c1-c1ccc(Cl)cc1 [Pyrimethamine]		~1 (toxoplasmosis) μg/mL
C[C@@H](O)[C@H]1C(=O)N2C(C(=O)O)=C(SCCN=CN)C[C@H]12 [Imipenem]	~1	
